Literature values as cited in US20100210792A1, “DRUG DELIVERY” (priority 2006, published 2010).
For at least one compound, name, drawing or mass did not settle the structure.

Settings: Table 1 drug list

For Cc1cc2c(s1)Nc1ccccc1N=C2N1CCN(C)CC1 [Olanzapine], the Hydrophobic is given as “YES”.
